Measurements reported in the supplement of paper PMC10849652.
The other results are listed elsewhere or left out.

Protein sequences, listed by entry. Tags and fused reporters are not part of them. Lines headed by an entry give the natural chain unless they say otherwise; changes in a name come on top.
UniProt Q96F07, whole entry, looked up: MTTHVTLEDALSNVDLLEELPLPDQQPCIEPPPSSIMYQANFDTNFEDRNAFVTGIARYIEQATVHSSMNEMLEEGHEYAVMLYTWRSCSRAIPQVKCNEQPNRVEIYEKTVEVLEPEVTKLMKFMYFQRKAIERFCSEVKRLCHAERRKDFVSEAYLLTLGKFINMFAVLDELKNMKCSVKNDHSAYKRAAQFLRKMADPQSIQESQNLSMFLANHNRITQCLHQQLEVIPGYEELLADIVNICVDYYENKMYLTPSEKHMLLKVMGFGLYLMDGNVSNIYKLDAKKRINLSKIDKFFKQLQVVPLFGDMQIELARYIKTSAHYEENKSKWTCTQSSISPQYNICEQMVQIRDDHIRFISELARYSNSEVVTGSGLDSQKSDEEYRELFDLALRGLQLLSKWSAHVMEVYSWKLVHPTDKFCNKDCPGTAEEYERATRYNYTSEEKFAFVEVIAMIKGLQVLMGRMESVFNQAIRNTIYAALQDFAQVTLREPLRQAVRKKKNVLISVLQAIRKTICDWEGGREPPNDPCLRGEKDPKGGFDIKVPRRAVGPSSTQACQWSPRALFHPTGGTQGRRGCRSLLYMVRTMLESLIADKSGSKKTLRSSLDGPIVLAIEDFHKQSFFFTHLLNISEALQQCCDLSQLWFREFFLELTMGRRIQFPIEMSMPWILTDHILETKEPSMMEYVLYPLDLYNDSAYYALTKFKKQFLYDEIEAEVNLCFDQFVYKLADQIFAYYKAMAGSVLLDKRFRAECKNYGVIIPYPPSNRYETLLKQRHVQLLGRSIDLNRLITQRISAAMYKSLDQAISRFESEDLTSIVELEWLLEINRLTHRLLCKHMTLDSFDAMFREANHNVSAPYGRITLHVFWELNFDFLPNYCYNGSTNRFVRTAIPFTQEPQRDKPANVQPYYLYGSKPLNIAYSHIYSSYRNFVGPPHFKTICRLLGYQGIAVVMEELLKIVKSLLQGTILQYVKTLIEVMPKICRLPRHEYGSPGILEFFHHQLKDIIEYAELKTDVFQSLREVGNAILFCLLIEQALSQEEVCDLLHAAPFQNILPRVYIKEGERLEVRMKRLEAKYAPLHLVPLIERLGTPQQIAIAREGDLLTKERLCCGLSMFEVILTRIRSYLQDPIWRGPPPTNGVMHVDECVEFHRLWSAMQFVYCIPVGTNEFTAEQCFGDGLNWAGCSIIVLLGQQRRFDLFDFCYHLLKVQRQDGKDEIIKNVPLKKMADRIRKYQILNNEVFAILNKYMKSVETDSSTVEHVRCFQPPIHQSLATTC
UniProt Q12996: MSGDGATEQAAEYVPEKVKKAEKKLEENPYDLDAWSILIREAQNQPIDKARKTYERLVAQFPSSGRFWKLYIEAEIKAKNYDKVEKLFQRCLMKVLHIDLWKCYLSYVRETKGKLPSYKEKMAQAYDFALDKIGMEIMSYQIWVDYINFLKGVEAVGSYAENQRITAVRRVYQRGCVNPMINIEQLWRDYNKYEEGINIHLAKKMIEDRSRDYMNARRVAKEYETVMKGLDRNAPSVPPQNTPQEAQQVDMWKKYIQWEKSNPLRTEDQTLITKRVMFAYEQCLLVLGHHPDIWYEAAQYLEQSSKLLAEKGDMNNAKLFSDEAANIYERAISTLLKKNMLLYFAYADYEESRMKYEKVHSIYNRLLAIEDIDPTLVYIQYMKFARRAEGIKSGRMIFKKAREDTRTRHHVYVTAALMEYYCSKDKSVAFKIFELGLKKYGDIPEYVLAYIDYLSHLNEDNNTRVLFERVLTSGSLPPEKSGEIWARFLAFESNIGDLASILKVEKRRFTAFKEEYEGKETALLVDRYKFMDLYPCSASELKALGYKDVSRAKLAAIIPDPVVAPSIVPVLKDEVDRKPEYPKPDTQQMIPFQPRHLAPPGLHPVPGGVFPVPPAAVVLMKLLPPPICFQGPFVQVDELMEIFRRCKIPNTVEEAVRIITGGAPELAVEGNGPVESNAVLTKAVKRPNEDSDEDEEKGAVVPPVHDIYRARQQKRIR
UniProt Q9UBR2: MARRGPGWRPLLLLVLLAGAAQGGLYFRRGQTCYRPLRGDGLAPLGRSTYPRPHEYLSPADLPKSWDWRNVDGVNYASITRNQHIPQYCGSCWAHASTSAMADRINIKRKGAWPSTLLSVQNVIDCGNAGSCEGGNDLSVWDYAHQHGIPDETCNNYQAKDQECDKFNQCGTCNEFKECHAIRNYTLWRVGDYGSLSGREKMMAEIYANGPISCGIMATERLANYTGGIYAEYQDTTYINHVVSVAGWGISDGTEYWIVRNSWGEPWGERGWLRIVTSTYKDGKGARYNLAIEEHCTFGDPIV
UniProt Q15828: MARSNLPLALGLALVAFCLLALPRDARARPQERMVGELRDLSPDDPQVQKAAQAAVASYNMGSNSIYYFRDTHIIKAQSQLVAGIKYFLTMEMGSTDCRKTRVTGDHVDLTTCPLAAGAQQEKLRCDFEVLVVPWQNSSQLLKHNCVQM
UniProt Q99418: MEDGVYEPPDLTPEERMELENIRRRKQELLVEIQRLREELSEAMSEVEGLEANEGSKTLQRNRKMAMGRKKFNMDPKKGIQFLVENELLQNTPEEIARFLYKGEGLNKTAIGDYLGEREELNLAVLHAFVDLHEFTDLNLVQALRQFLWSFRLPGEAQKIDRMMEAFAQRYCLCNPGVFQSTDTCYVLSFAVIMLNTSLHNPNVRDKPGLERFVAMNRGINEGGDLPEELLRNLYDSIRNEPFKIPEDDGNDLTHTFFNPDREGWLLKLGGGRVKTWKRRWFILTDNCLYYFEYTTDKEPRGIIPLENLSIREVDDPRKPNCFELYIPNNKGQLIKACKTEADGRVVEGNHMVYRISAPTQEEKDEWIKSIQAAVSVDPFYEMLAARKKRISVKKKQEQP
UniProt O95476: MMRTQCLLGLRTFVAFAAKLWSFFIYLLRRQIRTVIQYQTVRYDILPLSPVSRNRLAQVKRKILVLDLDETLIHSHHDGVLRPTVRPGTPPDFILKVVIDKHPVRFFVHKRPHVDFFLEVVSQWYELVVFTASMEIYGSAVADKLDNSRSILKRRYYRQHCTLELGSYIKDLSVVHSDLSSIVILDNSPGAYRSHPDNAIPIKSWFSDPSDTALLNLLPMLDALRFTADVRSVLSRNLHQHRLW
UniProt Q9NSA3: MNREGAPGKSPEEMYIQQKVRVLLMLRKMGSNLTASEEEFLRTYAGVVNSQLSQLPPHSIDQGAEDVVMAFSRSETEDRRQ
UniProt Q8N8Z6: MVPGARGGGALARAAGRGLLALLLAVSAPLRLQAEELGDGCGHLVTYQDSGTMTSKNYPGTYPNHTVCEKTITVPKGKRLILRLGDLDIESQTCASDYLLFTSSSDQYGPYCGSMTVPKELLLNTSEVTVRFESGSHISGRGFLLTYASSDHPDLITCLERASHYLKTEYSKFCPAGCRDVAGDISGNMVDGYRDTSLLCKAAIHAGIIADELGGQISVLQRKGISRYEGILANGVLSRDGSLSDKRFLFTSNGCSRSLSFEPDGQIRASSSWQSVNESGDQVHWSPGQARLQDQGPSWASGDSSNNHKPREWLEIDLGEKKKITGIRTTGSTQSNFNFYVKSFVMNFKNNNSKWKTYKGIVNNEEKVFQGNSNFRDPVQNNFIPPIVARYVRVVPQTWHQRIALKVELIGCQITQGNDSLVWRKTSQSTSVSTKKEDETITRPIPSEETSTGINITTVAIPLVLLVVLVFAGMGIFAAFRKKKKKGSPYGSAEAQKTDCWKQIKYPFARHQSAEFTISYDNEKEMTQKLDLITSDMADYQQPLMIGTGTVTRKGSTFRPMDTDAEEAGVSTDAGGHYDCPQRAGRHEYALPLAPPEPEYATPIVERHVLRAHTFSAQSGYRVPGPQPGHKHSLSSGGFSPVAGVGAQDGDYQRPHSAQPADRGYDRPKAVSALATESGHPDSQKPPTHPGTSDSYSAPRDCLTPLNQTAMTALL
UniProt Q96DE9: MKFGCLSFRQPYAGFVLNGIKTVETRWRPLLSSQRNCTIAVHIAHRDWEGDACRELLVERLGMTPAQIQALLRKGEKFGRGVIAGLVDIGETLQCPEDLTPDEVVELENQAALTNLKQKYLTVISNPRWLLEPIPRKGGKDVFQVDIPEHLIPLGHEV
UniProt O43310: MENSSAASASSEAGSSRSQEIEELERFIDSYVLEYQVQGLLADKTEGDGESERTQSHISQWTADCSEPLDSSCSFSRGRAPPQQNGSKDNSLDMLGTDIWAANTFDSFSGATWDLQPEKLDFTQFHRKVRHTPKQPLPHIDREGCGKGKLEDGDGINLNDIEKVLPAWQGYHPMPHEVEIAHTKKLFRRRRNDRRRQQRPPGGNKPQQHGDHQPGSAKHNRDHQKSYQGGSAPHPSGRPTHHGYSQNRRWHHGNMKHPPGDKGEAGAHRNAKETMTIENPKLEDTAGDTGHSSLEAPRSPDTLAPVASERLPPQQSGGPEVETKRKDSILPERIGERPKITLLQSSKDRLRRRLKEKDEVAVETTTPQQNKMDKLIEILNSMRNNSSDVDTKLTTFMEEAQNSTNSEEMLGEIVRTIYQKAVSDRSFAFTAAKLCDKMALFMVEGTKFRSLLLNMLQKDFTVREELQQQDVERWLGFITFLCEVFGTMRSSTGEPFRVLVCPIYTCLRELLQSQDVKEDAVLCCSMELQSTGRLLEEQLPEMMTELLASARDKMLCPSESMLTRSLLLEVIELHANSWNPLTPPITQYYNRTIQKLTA
UniProt Q8NBI2: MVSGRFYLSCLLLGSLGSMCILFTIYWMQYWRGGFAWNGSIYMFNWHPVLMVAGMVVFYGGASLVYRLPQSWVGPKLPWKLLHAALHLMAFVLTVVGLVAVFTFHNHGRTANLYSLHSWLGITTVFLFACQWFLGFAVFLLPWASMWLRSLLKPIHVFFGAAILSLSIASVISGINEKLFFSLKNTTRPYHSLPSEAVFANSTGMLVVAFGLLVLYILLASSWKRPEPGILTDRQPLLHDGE
UniProt P01036: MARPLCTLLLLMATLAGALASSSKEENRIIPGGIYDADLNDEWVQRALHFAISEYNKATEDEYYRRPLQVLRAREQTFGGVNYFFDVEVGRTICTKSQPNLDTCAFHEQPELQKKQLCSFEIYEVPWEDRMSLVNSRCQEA

Experiments:
Test in all cases: log2 fold change, soluble protein after heating vs DMSO (PISA); higher = thermal stabilisation; K562 cells, 10 uM, 30 min; active = over 0.2 and 3.5 SD of the protein, either way, in both replicates (recomputed)
[1] = compound: C1=CC=C(C=C1)[C@H](COC2=CC3=C(C=C2)NC(=O)N3)NC(=O)C4=CC=CN(C4=O)CC5=CC(=C(C=C5)F)F
Procedure, shortened: (§1)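 K562 cells at 2×10^6 cells/mL were treated for 30 min with 10 μM compound, and aliquots were heated for 3 min over 48°C-58°C before pooling. Extraction used PBS with 0.5% NP-40 at 4°C, and soluble protein was the supernatant after 21,000xg for 90 min, measured by TMTpro 16plex LC-MS/MS with channel sums equalised. Thermal stability values, relative to control samples and from duplicates, are log2 fold changes.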

[2] = compound: CC1=C(SC2=C1C(=N[C@H](C3=NN=C(N32)C)CC(=O)N)C4=CC=C(C=C4)Cl)C
Procedure, shortened: as §1

[3] = compound: CC1=C2C(=CC=C1)N=C(N(C2=O)C3=CC=CC=C3C)CN4C=NC5=C(N=CN=C54)N
Procedure, shortened: as §1

[4] = compound: Cc1sc2c(c1C)C(c1ccc(Cl)cc1)=N[C@@H](CC(=O)OC(C)(C)C)c1nnc(C)n1-2
Procedure, shortened: as §1

[5] = compound: c1ccc([C@@H]2C[C@H]2NC2CCNCC2)cc1
Procedure, shortened: as §1

Measured: log2 fold change

CYFIP2 (UniProt Q96F07)
inactive: [1] 0.006 | [2] 0.04 | [3] 0.026 | [4] -0.03 | [5] 0.002

CSTF3 (UniProt Q12996)
inactive: [1] -0.005 | [2] 0.064 | [3] -0.007 | [4] 0.03 | [5] -0.016

CTSZ (UniProt Q9UBR2)
inactive: [1] -0.003 | [2] 0.009 | [3] 0.032 | [4] 0.039 | [5] -0.01

CST6 (UniProt Q15828)
inactive: [4] -0.165

CYTH2 (UniProt Q99418)
inactive: [1] -0.076 | [4] -0.136

CTDNEP1 (UniProt O95476)
inactive: [2] 0.095 | [3] 0.095 | [4] -0.496 | [5] -0.067

CTNNBIP1 (UniProt Q9NSA3)
inactive: [2] 0.127 | [5] -0.105

DCBLD1 (UniProt Q8N8Z6)
inactive: [2] 0.07 | [5] 0.02

CXorf40B (UniProt Q96DE9)
inactive: [2] 0.154 | [5] 0.201

CTIF (UniProt O43310)
inactive: [2] 0.189 | [3] -0.671 | [4] -0.11 | [5] -0.114

CYB561A3 isoform 2 (UniProt Q8NBI2)
inactive: [1] 0.033 | [2] -0.009 | [4] -0.075 | [5] 0.002

2 neighbouring records from above, quoted:
DCBLD1 (UniProt Q8N8Z6)
inactive: [2] 0.07 | [5] 0.02

CXorf40B (UniProt Q96DE9)
inactive: [2] 0.154 | [5] 0.201

(listing goes on)

CST4 (UniProt P01036)
inactive: [1] 0.248 | [2] -0.019 | [3] 0.112 | [5] -0.301
